About 9,100 (2.5%) of roughly 360,000 compounds were called active. This list was built around the results that the source calls inconclusive (neither active nor inactive); the mix of calls is not that of the screen. Cut-off read from the data, not from the text of the source: active = max response below about -50%; inconclusive = no clear call, values can overlap the other calls; inactive = above that.
target: D(3) dopamine receptor (Homo sapiens) (UniProt P35462); assay: qHTS of D3 Dopamine Receptor Antagonist: qHTS; conditions: D3R cells, DiscoveRx beta-arrestin luminescence, antagonist mode; active compounds read low
In short: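 Cells plated overnight at 1500 cells/well, then exposed to library compounds with dopamine controls for 90 minutes at 37 degrees C. DiscoveRx reagent added for 30–60 minutes at room temperature; luminescence read, quantitative HTS format.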
% is set by controls: 0 for no effect and ±100 for the full control effect.

Protein sequences, listed by entry. Tags and fused reporters are not part of them.
UniProt P35462, whole entry, looked up: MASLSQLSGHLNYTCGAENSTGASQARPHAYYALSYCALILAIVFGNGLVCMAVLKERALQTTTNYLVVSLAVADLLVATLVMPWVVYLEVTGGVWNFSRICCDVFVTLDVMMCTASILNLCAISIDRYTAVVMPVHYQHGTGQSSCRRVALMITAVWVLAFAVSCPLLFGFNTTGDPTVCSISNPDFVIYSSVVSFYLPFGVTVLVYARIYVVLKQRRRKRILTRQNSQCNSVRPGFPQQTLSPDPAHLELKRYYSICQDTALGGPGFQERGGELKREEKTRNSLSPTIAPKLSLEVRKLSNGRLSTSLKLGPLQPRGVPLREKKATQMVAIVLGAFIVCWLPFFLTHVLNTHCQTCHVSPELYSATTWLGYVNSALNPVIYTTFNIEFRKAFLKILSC

SMILES	max response, negative = inhibition
CC(C)C[C@H]1CNC(=S)N1CC1CCCN1C[C@H](Cc1ccc(O)cc1)N1C[C@H](Cc2ccccc2)N(CC2CCCCC2)C1=S (some centres not stated)	active: -81.2%
Cc1ccc2cc(CN(C)C(=O)C3CCCO3)c(=O)[nH]c2c1 (configuration not stated)	inconclusive: -39.8%
COc1ccc(CNC(=O)[C@@H](Cc2ccccc2)NC(=O)CC[C@H]2O[C@@H](n3ccc(=O)[nH]c3=O)[C@H](O)[C@@H]2O)cc1	inactive: -21.7%
CCN(CC(=O)Nc1c(F)cccc1F)C(=O)Cc1c[nH]c2ccccc12	inconclusive: -31.2%
COc1ccc(OCC#CCNC(C)(C)C)cc1	active: -68.8%
Cc1noc(C)c1S(=O)(=O)N(C)C[C@H]1Oc2ccc(NS(=O)(=O)c3cn(C)cn3)cc2C(=O)N([C@H](C)CO)C[C@@H]1C	inconclusive: -37%
CC(C)(C)c1ccc(C(=O)NCCCNC(=O)c2cccnc2)cc1	inactive: 21%
COc1cccc(/C=N/NC(=O)c2ccccc2N(Cc2ccccc2)S(=O)(=O)c2ccccc2)c1OC	inconclusive: -43.6%
O=C(CN(Cc1ccccc1)S(=O)(=O)c1ccc(F)cc1)NCc1cccnc1	inactive: -4.32%
CCc1ccc2c(c1)[C@]1(C(=O)N2)[C@@H]2C(=O)N(Cc3ccccc3)C(=O)[C@@H]2[C@@H]2CCCN21	inconclusive: -31.7%
Cc1onc(-c2ccccc2)c1-c1nc2ccccc2c(=O)o1	inconclusive: -42.1%
COc1ccc(-c2nnc(SCC(=O)Nc3ccc(Cl)cc3)n2C)cc1	active: -57.1%
Fc1ccc(CN2CCC(Cc3ccccc3)CC2)cc1F	inconclusive: -39.3%
Cc1cccc(CSc2nc3ccncc3n2CC(=O)Nc2cc(C)cc(C)c2)c1	active: -54.6%
CC(=O)c1cccc(N2C(=NC(=O)C(C)C)SC3CS(=O)(=O)CC32)c1 (configuration not stated)	inconclusive: -38.8%
COc1ccc(-c2noc(CN(C)S(=O)(=O)c3ccccc3)n2)cc1OC	inconclusive: -33.9%
CN1C(=O)c2cccc(N(C)C)c2C1=O	inconclusive: -37.9%
CCN(CC)C(=O)CSc1nnc2nnc3cc(Cl)ccc3n12	inconclusive: -36.1%
CCCCCCSc1cc(-c2nc3ccc(Cl)cn3c2NC2CCCCC2)ccc1OC	inactive: 62.4%
COc1ccccc1-n1c(SCC(=O)O)nc2c(sc(=S)n2-c2ccc(Cl)c(C)c2)c1=O	inactive: 14.1%
N/C(COc1ccc(Cl)cc1)=N\NS(=O)(=O)c1ccccc1	inconclusive: -46.3%
Cc1cnn(CCC(=O)NNC(=S)Nc2cccc(Cl)c2)c1	inactive: -16.1%
COc1ccc(C(CNC(=O)COc2cc(C)ccc2Cl)N2CCCCC2)cc1 (configuration not stated)	active: -58.5%
CCO[C@@H]1OC(C(=O)N2CCN(C)CC2)=C[C@H](C(C)(C)C)[C@H]1CCCO	inconclusive: -30.8%
Cc1ccc(C(=O)Cn2c(C(=O)/C=C/c3ccccc3)nc3ccccc32)cc1	inconclusive: -44.8%
Cc1ccc(-n2nc(C)c3c2OC(N)=C(C#N)C3c2ccccc2F)cc1 (configuration not stated)	active: -52%

SMILES	max response, negative = inhibition
CC(CN1CCOCC1)C(=O)c1ccccc1 (configuration not stated)	inconclusive: -30.6%
Cc1ccc2cc3cc(C(=O)NCCCN4CCc5ccccc5C4)oc3nc2c1	active: -55.4%
COc1ccc(CCNC(=O)c2ccc3c(c2)S(=O)(=O)N=C2CCCCCN23)cc1	inactive: -1.22%
CCOC(=O)c1nnc(-c2ccc(C)cc2)nc1Oc1ccc(Cl)cc1Cl	inactive: 19.5%
Cc1cc(=O)[nH]c(N=N/C(=N/Nc2ccccc2C)c2ccccc2)n1	inconclusive: -35.4%
C[C@@H]1CCCCO[C@@H](CN(C)S(=O)(=O)c2ccc(F)cc2)[C@@H](C)CN([C@H](C)CO)C(=O)c2cc(N(C)C)ccc2O1	inconclusive: -40.5%
C/C(=N\N1CCN(c2ccc(Cl)cc2)CC1)c1cccs1	inactive: 14.4%
COc1ccc(S(=O)(=O)n2c(CCN3CCOCC3)nc3ccccc32)cc1	inconclusive: -37.3%
Cc1nn(Cc2ccccc2Cl)c(C)c1C(=O)N(C)CC(=O)Nc1cccc(F)c1	inactive: -0.619%
O=C(NC1CCCCC1)C(C1CC1)N1CCc2ccccc2C1 (configuration not stated)	inconclusive: -41.9%
c1ccc(-c2cc(-c3nnc4n3N=C(c3ccc5ccccc5c3)CS4)[nH]n2)cc1	inconclusive: -30.3%
Cc1cccc(N/C=C/c2onc(C)c2[N+](=O)[O-])c1	inconclusive: -37.5%
CCC[C@@H](CN1CCC[C@H]1CN1C(N)=NC[C@H]1CC(C)C)N1C[C@@H]([C@H](C)CC)N(CCc2ccc(Cl)c(Cl)c2)C1=N	inconclusive: -30.3%
O=C(Nc1ccc2c(c1)OCCO2)c1ccc(Cl)c(S(=O)(=O)N2CCCCC2)c1	inconclusive: -35.5%
CC(C)C[C@H]1CN([C@@H](CC(C)C)CN2CCCC2CN2C(=S)NC[C@@H]2Cc2ccccc2)C(=S)N1CC1CCCCC1 (some centres not stated)	active: -112%
O=C1CCN(S(=O)(=O)c2ccccc2)CCN1CCOCc1cccc(F)c1	inactive: 32.1%
Cc1nc(CC(=O)Nc2nccs2)cs1	inactive: -9.85%
O=C(N/N=C/c1ccccc1)c1[nH]c2ccc(Br)cc2c1-c1ccccc1	active: -89%
COc1ccc(CCNC2=NCCS2)cc1	inconclusive: -36.7%
COc1cc2c(cc1OC)CN(CC(=O)Nc1ccc(C)cc1)CC2	inconclusive: -48.8%
COc1cccc(C2c3cc4c(cc3OC(N3CCOCC3)C2C)OCO4)c1O (configuration not stated)	inconclusive: -37.4%
CC(=O)C(Sc1ccc2nnc(-c3ccc(F)cc3)n2n1)C(C)=O	inconclusive: -37.7%
CC1=C/C(=C(\c2cc(C)c(O)c(Br)c2)c2ccccc2S(=O)(=O)O)C=C(Br)C1=O	active: -51.7%
COc1ccc(-c2cc(C(=O)NC3CCCC3)c3ccccc3n2)cc1	inactive: -9.82%
C/C=C/C(=O)Nc1cccc(C2=NOC3(C2)C[C@@H](C(N)=O)N(C(=O)/C(C)=C/C)C3)c1 (some centres not stated)	inactive: 25.7%
Clc1cc(Br)ccc1OCCCNCc1ccccc1	active: -88.1%

Compounds from the list above that contain bromine, in the order listed:
SMILES	max response, negative = inhibition
O=C(N/N=C/c1ccccc1)c1[nH]c2ccc(Br)cc2c1-c1ccccc1	active: -89%
CC1=C/C(=C(\c2cc(C)c(O)c(Br)c2)c2ccccc2S(=O)(=O)O)C=C(Br)C1=O	active: -51.7%
Clc1cc(Br)ccc1OCCCNCc1ccccc1	active: -88.1%

— PubChem BioAssay AID652054 (National Center for Advancing Translational Sciences (NCATS), 2013)
